Experimental data reported in US12139472B2, “Inhibitors of advanced glycation end products” (priority 2019, dated 2024).
At least one compound was matched to its structure with a doubt left.

Test: Pharmacokinetic study for PTG-630 (IV and PO): plasma, whole blood, tissues, urine
Type: in vivo, Sprague Dawley rats
Details: after PTG-630 PO
Protocol: The samples were analyzed in two batches with standards and QCs prepared on rat plasma and rat urine. Analyst® 1.6 (SCIEX) software was used for statistical analysis of bioanalytical data. […] Dose samples collected at 0.083 h-6 h postdose were diluted 4 times with SD rat plasma prior to plating. Twenty-four (24) hours plasma samples were assayed without dilution. […] Two sciatic nerve samples were excluded from analysis, due to the insufficient sample size. […] The 12 non-cannulated animals were arbitrarily assigned to groups upon arrival and housed together throughout the experiment. The animals were acclimated to their designated housing for at least 24 hours before the first day of dosing. […] Blood samples were collected via cannula from IV dosed rats or by cardiac stick from PO dosed rats at the specified time points for sampling pharmacokinetics. Blood was collected into K2EDTA tubes. Tubes were mixed gently after blood collection, chilled and centrifuged at 3000 rpm, 4° C. within 30 minutes upon collection. The samples were centrifuged at 4° C. and the resultant plasma separated. […] Urine from Group 1 was collected via polycarbonate tubes from rats placed in drug metabolism cages. Urine was maintained and room temperature through the collection period.

For Cc1ncc(CO)c(-c2ncc[nH]2)c1O [PTG-4997], the “Cmax in kidney, times lower than PTG-630 in kidneys” value was 21 times.
